Experimental data: patent US11622990B2, “VAP polypeptide and use thereof in preparation of drug for targeted diagnosis and treatment of tumor” (FUDAN UNIVERSITY, priority 2016, dated 2023)

By UniProt entry, the sequences of proteins in these tests, tags left out. Residues count along the entry.
UniProt P11021, 19-654: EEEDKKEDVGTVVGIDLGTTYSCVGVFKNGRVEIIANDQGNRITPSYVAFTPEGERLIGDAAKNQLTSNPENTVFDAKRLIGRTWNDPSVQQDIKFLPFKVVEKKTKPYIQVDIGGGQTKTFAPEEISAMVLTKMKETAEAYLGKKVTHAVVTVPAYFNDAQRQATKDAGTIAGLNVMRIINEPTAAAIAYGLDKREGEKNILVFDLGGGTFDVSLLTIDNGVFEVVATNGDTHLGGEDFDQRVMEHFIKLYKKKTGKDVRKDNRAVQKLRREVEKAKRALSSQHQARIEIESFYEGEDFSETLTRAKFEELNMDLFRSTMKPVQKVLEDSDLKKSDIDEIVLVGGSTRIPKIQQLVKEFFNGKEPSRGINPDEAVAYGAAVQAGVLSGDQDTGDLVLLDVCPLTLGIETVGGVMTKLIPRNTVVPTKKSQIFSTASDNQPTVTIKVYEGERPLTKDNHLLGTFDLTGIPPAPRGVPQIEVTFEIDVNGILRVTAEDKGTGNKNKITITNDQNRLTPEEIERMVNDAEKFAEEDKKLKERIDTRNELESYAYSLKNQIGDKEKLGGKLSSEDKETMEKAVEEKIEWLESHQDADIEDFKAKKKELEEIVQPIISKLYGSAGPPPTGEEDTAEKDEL

Target: GRP78 protein (Homo sapiens, UniProt P11021)
Assay: Binding activity of VAP to GRP78 by surface plasmon resonance (Biacore)

## CC(C)[C@@H](NC(=O)[C@@H](C)NC(=O)[C@H]1CCCN1)C(=O)N[C@H](CCCNC(=N)N)C(=O)N[C@@H](C(=O)N[C@H](CC(N)=O)C(=O)N[C@H](CO)C(=O)O)[C@H](C)O [^DVAP]
  Kd: 4.01 µM
